The list shows a part of the results.
target: OsWRKY34 (Oryza sativa, UniProt Q0JBA9 1-250); assay: protein-binding microarray (RPBM); PBS, 2% BSA, 51.3 ng/ul salmon testes DNA, 50 uM zinc acetate, 200 nM TF, 25 C, 1 h; high values mean tight binding; conditions: protein: recombinant; tags: N-terminal polyhistidine and DsRed monomer fusion (pET32a); label: CyDye5-dUTP incorporated in the synthesized complementary strand; 3' TTTTT single-stranded linker to array surface; dsDNA, one strand shown
Summary of the method: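 An Axon 4000B scanner gave the binding signal as per-feature fluorescence intensity in arbitrary units. This followed washing of a custom Agilent array that had been incubated for 1 h at 25 °C with 200 nM protein in PBS, 2% BSA, salmon testes DNA and 50 µM zinc acetate. The proteins were transcription factors fused at the N-terminus to polyhistidine and DsRed, expressed in E. coli BL21-CodonPlus and purified on Ni–NTA.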

Protein sequences, listed by entry. Tags and fused reporters are not part of them.
UniProt Q0JBA9, entry or part of it: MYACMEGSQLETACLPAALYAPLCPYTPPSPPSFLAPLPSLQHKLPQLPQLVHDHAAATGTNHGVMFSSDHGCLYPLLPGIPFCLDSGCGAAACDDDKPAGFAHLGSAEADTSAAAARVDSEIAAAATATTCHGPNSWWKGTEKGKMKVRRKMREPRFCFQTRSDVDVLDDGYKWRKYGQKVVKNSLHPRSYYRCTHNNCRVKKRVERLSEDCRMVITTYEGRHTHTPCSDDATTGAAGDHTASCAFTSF

Question: Which binding signal does the source give for “AGCTGCAAACAACGAACTCACTCCATTTCATCTTTTTCTACGGAGTCACCTAGTGCAG” here?
Answer: 8790 fluorescence intensity (a.u.)

Question: For “ATTTCATCGCGCTTCCATAGTTACTCTGACTCCCTAGCTACGGAGTCACCTAGTGCAG”, which binding signal is on record?
Answer: 10000 fluorescence intensity (a.u.)

Question: “CAACCGGGCGTCGCTTTAATGGCTTAGTACGCCCTATTTTCGGAGTCACCTAGTGCAG” was tested. Which binding signal did it give?
Answer: 8340 fluorescence intensity (a.u.)

Question: With “GATTTAGCATCTATCTCTTTCATGCGTTACACACTTTTCACGGAGTCACCTAGTGCAG” as the sequence, how does the binding signal read?
Answer: 12600 fluorescence intensity (a.u.)

Question: “ATTACTACTGCCTCTATGGCTCTATCCCAATTAATCATACCGGAGTCACCTAGTGCAG” was tested. Which binding signal did it give?
Answer: 8890 fluorescence intensity (a.u.)

Question: For “CCTACCATCTCTACAAGGTATATTAGCAGTTAGTACATTTCGGAGTCACCTAGTGCAG”, which binding signal is on record?
Answer: 9770 fluorescence intensity (a.u.)

Question: Which binding signal does the source give for “GCGATTGAAAAGCTAGCCATCGCTCCGTCCTGCCGTTCGTCGGAGTCACCTAGTGCAG” here?
Answer: 9000 fluorescence intensity (a.u.)

Question: “ACCTTATTGGGGAGCTTTACAGCCTCATATTTTTCTTATTCGGAGTCACCTAGTGCAG” was tested. Which binding signal did it give?
Answer: 8140 fluorescence intensity (a.u.)

Question: For “CTTGCTTGCTGCTATGGCCATGCCTAATGTGTTGTCGCACCGGAGTCACCTAGTGCAG”, which binding signal is on record?
Answer: 11100 fluorescence intensity (a.u.)

Question: Which binding signal does the source give for “GGTGTTTGGATCCAGAGACTTAACTTTAGTCTCTGTATTTCGGAGTCACCTAGTGCAG” here?
Answer: 8550 fluorescence intensity (a.u.)

Question: How did the binding signal turn out when “CTCCCTACACAAGACACCTTGAGATTTCTTATGTCACTTTCGGAGTCACCTAGTGCAG” was run?
Answer: 9740 fluorescence intensity (a.u.)

Question: How did the binding signal turn out when “AATCACGTCTCAACTTTCTGTCTATCACAATCAGTGTTCTCGGAGTCACCTAGTGCAG” was run?
Answer: 9630 fluorescence intensity (a.u.)

Question: “CCTTTTCCCTTCTGTGTTTCTCGGCACGACCAACTGTTGCCGGAGTCACCTAGTGCAG” was tested. Which binding signal did it give?
Answer: 10200 fluorescence intensity (a.u.)

Question: With “AATATTATTTGTACTTATTTTGTCGGCCTAATTGATGTACCGGAGTCACCTAGTGCAG” as the sequence, how does the binding signal read?
Answer: 9100 fluorescence intensity (a.u.)

Question: Which binding signal does the source give for “GATTCTATACTTTTATTTAACTTCTGCTGATGCCGAGCGGCGGAGTCACCTAGTGCAG” here?
Answer: 8100 fluorescence intensity (a.u.)

Question: “ATCGGGTCATATTCTCGTGTACATCTACTAGCACAACATTCGGAGTCACCTAGTGCAG” was tested. Which binding signal did it give?
Answer: 13200 fluorescence intensity (a.u.)

Question: Which binding signal does the source give for “GTTCTTATCCTCCTCTGCCAGCAGTGACTCACCTCGCCACCGGAGTCACCTAGTGCAG” here?
Answer: 10700 fluorescence intensity (a.u.)

Question: How did the binding signal turn out when “TTTACTCGGCCATCACATGGATCTTGGGCTCAGCAATATTCGGAGTCACCTAGTGCAG” was run?
Answer: 8480 fluorescence intensity (a.u.)

Question: “GGATGGGATGGGATCGGATCGGCGCAGGGCCAAGGCCCGACGGAGTCACCTAGTGCAG” was tested. Which binding signal did it give?
Answer: 8940 fluorescence intensity (a.u.)

Question: Which binding signal does the source give for “CAAGGGGTGGAGGGTCGCTGGCGATTTCTTAAGAAATCCGCGGAGTCACCTAGTGCAG” here?
Answer: 8980 fluorescence intensity (a.u.)

Question: “CTTTGGCTTCTTGCCTACCGCGTTCTTGGTGATCGTTGGTCGGAGTCACCTAGTGCAG” was tested. Which binding signal did it give?
Answer: 8270 fluorescence intensity (a.u.)

Question: For “TTGCTCTTGCAGTCTGGCTGTTGCTGCTGTACACACTAGACGGAGTCACCTAGTGCAG”, which binding signal is on record?
Answer: 8070 fluorescence intensity (a.u.)

Question: How did the binding signal turn out when “TTTGGCCCGTTTCCTTCCGTTTTCATGCTGGTCTCGAGTGCGGAGTCACCTAGTGCAG” was run?
Answer: 9110 fluorescence intensity (a.u.)

Question: Which binding signal does the source give for “CCCACCTCCACCGCGCCCACGAATCCATTCCATTCCATTCCGGAGTCACCTAGTGCAG” here?
Answer: 10800 fluorescence intensity (a.u.)

Question: For “GATTATCCTCCTTTCCAGTTTCCACTGTTGCCGCTGGGGCCGGAGTCACCTAGTGCAG”, which binding signal is on record?
Answer: 9940 fluorescence intensity (a.u.)

Question: How did the binding signal turn out when “TGGTCCTTGATAATTTGTTGGTCTTGTAGCGTGGGTGTTTCGGAGTCACCTAGTGCAG” was run?
Answer: 8820 fluorescence intensity (a.u.)

Question: How did the binding signal turn out when “TGCTTGTGAAATTGTTGTGCATTGAAGTTGGTTTCATTTTCGGAGTCACCTAGTGCAG” was run?
Answer: 10800 fluorescence intensity (a.u.)

Question: How did the binding signal turn out when “TATTGATTTATGTTTTTTAGGTTGTTGCTGATTATACATACGGAGTCACCTAGTGCAG” was run?
Answer: 10400 fluorescence intensity (a.u.)

Question: With “CACGCGCGCACTCGTCTCGCCGCGTCCACACCCATCGGCTCGGAGTCACCTAGTGCAG” as the sequence, how does the binding signal read?
Answer: 8920 fluorescence intensity (a.u.)

Question: Which binding signal does the source give for “TCCTGATCGGCCGGTTCGTCGTTTTCATCCGCGACTCCGACGGAGTCACCTAGTGCAG” here?
Answer: 8510 fluorescence intensity (a.u.)

Question: How did the binding signal turn out when “CAACATGCTATACAATGATTTTTTTTTTTCATTTTTAAATCGGAGTCACCTAGTGCAG” was run?
Answer: 8830 fluorescence intensity (a.u.)

Question: With “CACCGTTTCCTTCTCTCTTGTCCTCAAGCTGTCGTTGGGTCGGAGTCACCTAGTGCAG” as the sequence, how does the binding signal read?
Answer: 9280 fluorescence intensity (a.u.)

Question: How did the binding signal turn out when “CATTAATTCCAACATATAGTACTCCGCCATTTTGACTCGCCGGAGTCACCTAGTGCAG” was run?
Answer: 8640 fluorescence intensity (a.u.)

Question: Which binding signal does the source give for “ATCACAGTGTTCCTGCCTGATGATCCCTCACCCAGATGACCGGAGTCACCTAGTGCAG” here?
Answer: 8470 fluorescence intensity (a.u.)

Question: Which binding signal does the source give for “CTTTGTTTGCGCTGGTAGCCGCCGCCGTGACATGCGCTCACGGAGTCACCTAGTGCAG” here?
Answer: 9060 fluorescence intensity (a.u.)

Question: “TCCATTTCTTGCGCTTCTTGGTTTTGTCTGGGAACTATTGCGGAGTCACCTAGTGCAG” was tested. Which binding signal did it give?
Answer: 10600 fluorescence intensity (a.u.)

Question: “TTTCTTTCCGATTGCTTCCGTTCCCAGTGACTTATATTATCGGAGTCACCTAGTGCAG” was tested. Which binding signal did it give?
Answer: 8620 fluorescence intensity (a.u.)

Question: For “GCCGTTGCCACTAATCCGCCTGGCCTTCGCGCTAGCCTTCCGGAGTCACCTAGTGCAG”, which binding signal is on record?
Answer: 8500 fluorescence intensity (a.u.)

Question: For “ACTCTTGTCCTTACACCTCCAGTAAAAGAAGTTAGCTAATCGGAGTCACCTAGTGCAG”, which binding signal is on record?
Answer: 8500 fluorescence intensity (a.u.)

Question: For “CAACCGTCTCCACTTCCCTCCCCACCGCGCCAAATTCCCACGGAGTCACCTAGTGCAG”, which binding signal is on record?
Answer: 8730 fluorescence intensity (a.u.)

Question: With “CTTCCTTTCTCCCTATTGGCACCACTAGATTTGACCTTCGCGGAGTCACCTAGTGCAG” as the sequence, how does the binding signal read?
Answer: 8400 fluorescence intensity (a.u.)

Question: With “ACTGATACGGACGTGGGCCGCTTTTGTTTGAACACTCTCACGGAGTCACCTAGTGCAG” as the sequence, how does the binding signal read?
Answer: 10700 fluorescence intensity (a.u.)

Source: publication PMC7819943, “Rice protein-binding microarrays: a tool to detect cis-acting elements near promoter regions in rice”
